No constants are given. Whether binding was seen depends on the method and setting. In cells and extracts the contact can be indirect. Some entries that bind do so weakly or less than the wild type.

Chains of the proteins cited; added tags and fusions are not shown.
UniProt Q9H4G0: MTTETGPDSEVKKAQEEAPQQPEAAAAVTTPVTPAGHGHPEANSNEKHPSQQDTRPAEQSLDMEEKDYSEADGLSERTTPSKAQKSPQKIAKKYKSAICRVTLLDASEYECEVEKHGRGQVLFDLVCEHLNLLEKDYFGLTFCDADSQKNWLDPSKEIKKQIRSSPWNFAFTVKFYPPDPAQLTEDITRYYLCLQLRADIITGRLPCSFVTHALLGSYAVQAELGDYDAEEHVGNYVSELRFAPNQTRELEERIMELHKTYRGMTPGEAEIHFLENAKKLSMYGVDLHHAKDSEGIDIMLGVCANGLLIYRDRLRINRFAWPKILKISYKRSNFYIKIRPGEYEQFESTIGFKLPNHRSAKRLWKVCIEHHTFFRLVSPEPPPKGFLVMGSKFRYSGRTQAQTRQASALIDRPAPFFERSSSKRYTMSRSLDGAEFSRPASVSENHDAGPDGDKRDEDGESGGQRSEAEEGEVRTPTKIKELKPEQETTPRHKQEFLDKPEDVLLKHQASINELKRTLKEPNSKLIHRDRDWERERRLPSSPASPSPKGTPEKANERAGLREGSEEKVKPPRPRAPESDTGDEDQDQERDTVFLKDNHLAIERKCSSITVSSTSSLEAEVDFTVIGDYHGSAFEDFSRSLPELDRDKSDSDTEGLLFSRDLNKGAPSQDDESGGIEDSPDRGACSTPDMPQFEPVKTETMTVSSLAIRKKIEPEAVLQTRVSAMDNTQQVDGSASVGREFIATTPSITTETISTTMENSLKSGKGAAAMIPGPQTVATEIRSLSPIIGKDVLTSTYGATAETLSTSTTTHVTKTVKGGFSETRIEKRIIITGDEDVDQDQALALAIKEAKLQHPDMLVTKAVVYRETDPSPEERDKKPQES
UniProt P63104: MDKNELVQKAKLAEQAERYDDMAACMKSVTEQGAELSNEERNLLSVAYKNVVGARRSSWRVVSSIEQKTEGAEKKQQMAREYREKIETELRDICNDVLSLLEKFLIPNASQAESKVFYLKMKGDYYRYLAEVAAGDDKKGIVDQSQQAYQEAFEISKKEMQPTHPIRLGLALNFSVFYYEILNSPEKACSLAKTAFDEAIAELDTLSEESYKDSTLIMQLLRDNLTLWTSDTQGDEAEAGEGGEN
UniProt Q07812: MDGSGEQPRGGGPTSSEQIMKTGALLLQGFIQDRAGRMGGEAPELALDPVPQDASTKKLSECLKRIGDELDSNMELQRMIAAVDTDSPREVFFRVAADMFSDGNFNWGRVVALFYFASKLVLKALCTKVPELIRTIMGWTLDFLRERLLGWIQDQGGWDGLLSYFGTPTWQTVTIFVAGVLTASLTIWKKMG

Experiment [1] concerns the target GST-4.1N (EPB41L1-pGEX-4T-1) (human) (UniProt Q9H4G0). Nature of the experiment: pull-down; GST Protein Interaction Pull-Down Kit (Pierce); GST fusion protein produced in E. coli; complexes visualized by Western blot.
In experiment [2] the target is 4.1N expressed from EPB41L1-pEGFP in A2780 OE cells (human) (UniProt Q9H4G0). Nature of the experiment: co-IP; A2780 WT and A2780 OE lysates (50 mmol/L Tris-HCl pH 8.0, 150 mmol/L NaCl, 0.2% Nonidet P-40, 2 mmol/L EDTA); 2 µg anti-GFP antibody overnight at 4 °C, protein A/G agarose beads, immunoblot. For orientation: A western blot detects proteins with antibodies after separation by electrophoresis.

Experiment [3] deals with 14-3-3ζ (human (endogenous in A2780)) (UniProt P63104). As to the kind of experiment: co-IP; Co-IP of 14-3-3ζ by agarose beads followed by Western blot with indicated antibodies.

For the substance 14-3-3ζ (from UniProt P63104 1-245), the binding result in experiment [1] and in experiment [2] was “binds” throughout.

Take Bax (from UniProt Q07812 1-192): the binding entry in experiment [3] is given as “binds”.

Values taken from paper PMC7862473.
